Laboratory results: article doi:10.1101/816959
Results are given in words; binding and its absence hold for the method and conditions named. Tags and fused reporters may be left off the sequences shown.

Target: Caulobacter crescentus Ct-ParB-(His)6 (50 amino acid C-terminally truncated ParB) (Caulobacter crescentus) (UniProt B8GW30)
Assay: crystal structure

binding: no binding
B1: Caulobacter crescentus Ct-ParB-(His)6 (50 amino acid C-terminally truncated ParB) (domain or fragment, UniProt B8GW30 11-254)
chain: MSEGRRGLGRGLSALLGEVDAAPAQAPGEQLGGSREAPIEILQRNPDQPRRTFREEDLEDLSNSIREKGVLQPILVRPSPDTAGEYQIVAGERRWRAAQRAGLKTVPIMVRELDDLAVLEIGIIENVQRADLNVLEEALSYKVLMEKFERTQENIAQTIGKSRSHVANTMRLLALPDEVQSYLVSGELTAGHARAIAAAADPVALAKQIIEGGLSVRETEALARKAPNLSAGKSKGGRPPRVKD
